Reference: patent publication US20090143368A1, “Use of Cinnamoyl Compound” (priority 2005, published 2009)
Some results were stated once for a whole list of compounds, not compound by compound.

What follows are compounds tested on fibronectin gene (assay: TGF-β-promoted fibronectin gene transcription amount (quantitative RT-PCR, fibronectin/GAPDH)). Conditions: compound final concentration 10 μM; normal human skin fibroblast; 5 ng/ml TGF-β, 26 hours.
Type: cell-based

SMILES | Inhibition percentage of fibronectin transcription amount promoted by TGF-β
COCCNC(=O)c1cccc(C=CC(=O)C2=C(O)c3ccccc3S(=O)(=O)N2C)c1 [(10b), 4-hydroxy-3-[3-[3-[(2-methoxyethyl)aminocarbonyl]phenyl}acryloyl]-2-methyl-2H-1,2-benzothiazine-1,1-dioxide] | ≥ 70%
COCCNC(=O)c1cccc(C=CC(=O)c2c(O)c3cccnc3[nH]c2=O)c1 [(31a), 4-hydroxy-3-[3-[3-[(2-methoxyethyl)aminocarbonyl]phenyl}acryloyl]-1H-[1,8]naphthyridin-2-one] | ≥ 70%
COC(=O)COc1cccc(C=CC(=O)c2ccc(C)n(C)c2=O)c1 [(13c), 3-[3-[3-[(methoxycarbonyl)methoxy]phenyl]-1-oxo-2-propenyl]-1,6-dimethyl-2(1H)-pyridinone] | ≥ 70%
